This note sets out measurements from PubChem BioAssay AID2283097 (EPA ToxCast).

The chains behind the UniProt entries cited, without tags or fusion partners. Where a name states a change or a piece, a line headed by the entry shows the natural chain unless it says otherwise.
UniProt Q16678: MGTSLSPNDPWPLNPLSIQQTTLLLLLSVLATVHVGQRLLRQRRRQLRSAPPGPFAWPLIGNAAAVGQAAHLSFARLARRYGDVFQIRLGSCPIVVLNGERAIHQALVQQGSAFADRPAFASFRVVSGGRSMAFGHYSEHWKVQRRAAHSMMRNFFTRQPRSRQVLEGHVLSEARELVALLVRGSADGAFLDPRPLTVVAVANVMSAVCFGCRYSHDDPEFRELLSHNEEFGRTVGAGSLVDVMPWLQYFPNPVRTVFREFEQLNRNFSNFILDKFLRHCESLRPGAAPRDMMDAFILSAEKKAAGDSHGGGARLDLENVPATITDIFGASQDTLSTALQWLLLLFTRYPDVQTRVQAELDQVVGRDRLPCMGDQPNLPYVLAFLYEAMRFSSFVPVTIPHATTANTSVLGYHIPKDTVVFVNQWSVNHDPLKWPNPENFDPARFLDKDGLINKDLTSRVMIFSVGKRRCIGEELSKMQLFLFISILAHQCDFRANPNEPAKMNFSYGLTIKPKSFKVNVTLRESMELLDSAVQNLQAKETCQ

The list shows a part of the results, in another mix than the full data. Results filed as inconclusive are left out. Activity calls are given as the source filed them. Rule for the calls: active = hit-call score of the fitted dose curve at least 0.9, where 1 is the maximum; inconclusive = response in the unintended direction; inactive = score below 0.9.

In the assay the target is human CYP1B1, CYP1B1 (gene 1545) (UniProt Q16678). The assay is described as follows: NVS_ADME_hCYP1B1: NovaScreen (NVS) CYP450-related Enzyme Activity (ADME) Assay for human CYP1B1. Here is the method: NVS_ADME_hCYP1B1 is a biochemical, single-readout assay that uses extracted gene-proteins in a cell-free assay. Measurements were taken 1 hour after chemical dosing in a 96-well plate.NVS_ADME_hCYP1B1 is one of one assay component(s) measured or calculated from the NVS_ADME_hCYP1B1 assay. It is designed to make measurements of enzyme activity, a form of enzyme reporter, as detected with fluorescence intensity signals by Fluorescence technology.Data from the assay component NVS_ADME_hCYP1B1 was analyzed into 1 assay endpoint. This assay endpoint, NVS_ADME_hCYP1B1, was analyzed in the positive analysis fitting direction relative to Acetonitrile as the negative control and baseline of activity. Using a type of enzyme reporter, loss-of-signal activity can be used to understand changes in the enzymatic activity as they relate to the gene CYP1B1. Furthermore, this assay endpoint can be referred to as a primary readout, because this assay has produced multiple assay endpoints where this one serves a enzymatic activity function. To generalize the intended target to other relatable targets, this assay endpoint is annotated to the cyp intended target family, where the subfamily is xenobiotic metabolism. […]

As for `O=C(Nc1ccc([N+](=O)[O-])cc1Cl)c1cc(Cl)ccc1O`, the AC50 was active: 10 µM.
